Assay results: article doi:10.1101/2021.01.21.427698
No constants are given. Whether binding was seen depends on the method and setting. Some binding calls cover weakened binding; strength is not graded here. Tags and fused reporters may be left off the sequences shown.

Experiments:
Test in all cases: two-tag affinity co-purification of co-expressed proteins
[1] = biological target: T1, human SEPT9_i3 with a TEV-cleavable C-terminal Strep-tag-II (human) (UniProt Q9UHD8)
T1 sequence: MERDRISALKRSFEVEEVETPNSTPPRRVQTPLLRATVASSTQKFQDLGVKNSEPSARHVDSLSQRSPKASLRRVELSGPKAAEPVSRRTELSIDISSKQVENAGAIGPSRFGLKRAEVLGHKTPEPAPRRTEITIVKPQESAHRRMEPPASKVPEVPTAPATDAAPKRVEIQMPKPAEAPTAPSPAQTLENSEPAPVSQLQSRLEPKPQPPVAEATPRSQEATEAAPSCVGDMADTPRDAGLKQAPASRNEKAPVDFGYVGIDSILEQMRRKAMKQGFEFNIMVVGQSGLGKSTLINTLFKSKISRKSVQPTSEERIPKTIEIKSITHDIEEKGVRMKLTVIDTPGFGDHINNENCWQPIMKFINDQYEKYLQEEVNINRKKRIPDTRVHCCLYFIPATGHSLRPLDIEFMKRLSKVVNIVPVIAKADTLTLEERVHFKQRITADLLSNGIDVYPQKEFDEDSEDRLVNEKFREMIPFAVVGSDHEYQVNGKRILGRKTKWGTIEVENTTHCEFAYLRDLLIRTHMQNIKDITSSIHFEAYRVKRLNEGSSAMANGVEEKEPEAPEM

[2] = biological target: T2, human SEPT9_i1 with a TEV-cleavable C-terminal Strep-tag-II (human) (UniProt Q9UHD8)
T2 sequence: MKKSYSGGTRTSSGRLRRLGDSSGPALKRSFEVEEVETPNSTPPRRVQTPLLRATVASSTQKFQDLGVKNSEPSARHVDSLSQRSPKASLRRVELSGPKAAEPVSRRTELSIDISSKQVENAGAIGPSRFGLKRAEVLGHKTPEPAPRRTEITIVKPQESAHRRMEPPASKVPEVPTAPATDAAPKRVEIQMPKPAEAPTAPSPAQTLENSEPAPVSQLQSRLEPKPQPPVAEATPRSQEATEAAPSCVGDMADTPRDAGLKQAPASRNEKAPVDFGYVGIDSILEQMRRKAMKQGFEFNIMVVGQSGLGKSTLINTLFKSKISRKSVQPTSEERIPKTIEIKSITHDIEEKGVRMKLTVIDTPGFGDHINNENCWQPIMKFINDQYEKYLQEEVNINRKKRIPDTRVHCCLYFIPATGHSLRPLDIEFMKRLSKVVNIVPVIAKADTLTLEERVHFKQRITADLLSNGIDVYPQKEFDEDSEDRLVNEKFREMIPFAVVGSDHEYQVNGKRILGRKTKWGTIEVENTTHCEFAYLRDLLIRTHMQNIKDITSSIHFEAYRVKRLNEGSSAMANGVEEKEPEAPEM

[3] = biological target: T3, human SEPT2 with a TEV-cleavable N-terminal His6-tag (human), Q15019; conditions: remark: other sources report otherwise
T3 chain: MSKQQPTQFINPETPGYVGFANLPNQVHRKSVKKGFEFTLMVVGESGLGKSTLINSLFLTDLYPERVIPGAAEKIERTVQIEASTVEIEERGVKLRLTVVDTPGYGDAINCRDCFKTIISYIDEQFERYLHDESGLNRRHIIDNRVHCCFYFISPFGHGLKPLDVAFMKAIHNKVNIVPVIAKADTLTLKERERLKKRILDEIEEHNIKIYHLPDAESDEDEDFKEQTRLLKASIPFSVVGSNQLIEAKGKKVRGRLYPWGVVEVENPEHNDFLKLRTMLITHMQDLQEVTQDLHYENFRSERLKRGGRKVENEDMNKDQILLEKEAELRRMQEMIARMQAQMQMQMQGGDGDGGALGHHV

[4] = biological target: T4, human SEPT2 with a TEV-cleavable N-terminal His6-tag and its C-terminus fused to msfGFP (human), Q15019; conditions: remark: other sources report otherwise
T4 chain: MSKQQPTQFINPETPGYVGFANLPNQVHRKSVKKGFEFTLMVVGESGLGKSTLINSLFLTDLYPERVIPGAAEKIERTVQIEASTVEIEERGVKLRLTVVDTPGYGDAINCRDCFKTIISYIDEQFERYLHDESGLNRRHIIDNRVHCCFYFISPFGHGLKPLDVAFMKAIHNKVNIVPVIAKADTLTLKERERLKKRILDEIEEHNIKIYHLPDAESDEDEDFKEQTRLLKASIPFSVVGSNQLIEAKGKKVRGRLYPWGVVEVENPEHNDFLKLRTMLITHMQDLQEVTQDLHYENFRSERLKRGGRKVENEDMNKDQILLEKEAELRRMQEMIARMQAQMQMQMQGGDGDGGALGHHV

[5] = biological target: T5, full-length human SEPT7 with a TEV-cleavable C-terminal Strep-tag-II (as in the human hexamers) (human) (UniProt Q16181)
T5 sequence: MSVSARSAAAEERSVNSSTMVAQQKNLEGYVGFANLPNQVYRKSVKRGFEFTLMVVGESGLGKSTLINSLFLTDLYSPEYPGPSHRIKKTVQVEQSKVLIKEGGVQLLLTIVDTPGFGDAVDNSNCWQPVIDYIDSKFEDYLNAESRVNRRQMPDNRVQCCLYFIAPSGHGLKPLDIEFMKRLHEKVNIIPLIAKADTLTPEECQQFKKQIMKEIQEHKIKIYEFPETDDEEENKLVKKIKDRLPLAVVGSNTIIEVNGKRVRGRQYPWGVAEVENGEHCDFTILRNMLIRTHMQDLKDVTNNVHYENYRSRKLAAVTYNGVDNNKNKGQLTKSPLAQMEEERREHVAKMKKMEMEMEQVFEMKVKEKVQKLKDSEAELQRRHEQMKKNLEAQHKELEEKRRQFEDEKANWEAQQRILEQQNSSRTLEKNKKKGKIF

[6] = biological target: T6, human SEPT2 with a TEV-cleavable N-terminal His6-tag and its C-terminus fused to msfGFP (human) (UniProt Q15019)
T6 sequence: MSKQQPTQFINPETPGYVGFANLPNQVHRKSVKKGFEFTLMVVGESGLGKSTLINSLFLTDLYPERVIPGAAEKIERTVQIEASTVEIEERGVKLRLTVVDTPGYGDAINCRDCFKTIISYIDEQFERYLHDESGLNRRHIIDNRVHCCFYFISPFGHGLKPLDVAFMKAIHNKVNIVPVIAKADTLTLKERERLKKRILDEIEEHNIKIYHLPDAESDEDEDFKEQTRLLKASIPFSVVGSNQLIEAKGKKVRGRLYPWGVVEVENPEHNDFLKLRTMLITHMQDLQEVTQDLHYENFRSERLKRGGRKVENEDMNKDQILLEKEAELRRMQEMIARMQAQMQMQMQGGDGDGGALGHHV

[7] = biological target: T7, mouse SEPT2 with a TEV-cleavable N-terminal His6-tag (mouse) (UniProt P42208)
T7 sequence: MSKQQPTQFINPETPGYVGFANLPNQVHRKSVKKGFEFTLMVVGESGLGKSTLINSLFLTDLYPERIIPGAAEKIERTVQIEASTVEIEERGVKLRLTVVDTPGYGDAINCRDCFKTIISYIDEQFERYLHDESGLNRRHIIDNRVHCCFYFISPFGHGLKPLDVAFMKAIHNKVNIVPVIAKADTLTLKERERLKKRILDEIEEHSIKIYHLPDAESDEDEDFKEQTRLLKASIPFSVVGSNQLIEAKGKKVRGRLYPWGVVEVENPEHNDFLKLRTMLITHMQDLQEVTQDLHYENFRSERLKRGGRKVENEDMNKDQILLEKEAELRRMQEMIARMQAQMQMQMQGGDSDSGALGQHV

[8] = biological target: T8, human SEPT9_i3 with a noncleavable C-terminal Strep-tag-II (as in the mammalian octamers-9_i3) (human) (UniProt Q9UHD8)
T8 sequence: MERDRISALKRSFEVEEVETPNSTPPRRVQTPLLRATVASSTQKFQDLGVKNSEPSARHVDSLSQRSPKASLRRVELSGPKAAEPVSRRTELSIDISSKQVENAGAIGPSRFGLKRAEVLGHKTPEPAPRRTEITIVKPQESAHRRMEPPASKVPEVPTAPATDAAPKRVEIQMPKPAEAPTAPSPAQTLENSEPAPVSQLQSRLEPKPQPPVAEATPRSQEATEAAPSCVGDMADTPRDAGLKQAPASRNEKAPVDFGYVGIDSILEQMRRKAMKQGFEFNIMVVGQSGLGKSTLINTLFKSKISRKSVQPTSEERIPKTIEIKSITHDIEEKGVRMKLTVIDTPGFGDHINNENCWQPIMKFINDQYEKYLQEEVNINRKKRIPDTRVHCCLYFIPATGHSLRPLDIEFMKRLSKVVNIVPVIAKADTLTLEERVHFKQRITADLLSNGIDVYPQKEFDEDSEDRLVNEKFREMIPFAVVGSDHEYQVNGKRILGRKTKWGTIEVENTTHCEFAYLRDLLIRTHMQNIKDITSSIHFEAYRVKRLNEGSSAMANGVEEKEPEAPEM

B1: human SEPT2 with a TEV-cleavable N-terminal His6-tag and its C-terminus fused to msfGFP (protein, UniProt Q15019 1-361)
chain: MSKQQPTQFINPETPGYVGFANLPNQVHRKSVKKGFEFTLMVVGESGLGKSTLINSLFLTDLYPERVIPGAAEKIERTVQIEASTVEIEERGVKLRLTVVDTPGYGDAINCRDCFKTIISYIDEQFERYLHDESGLNRRHIIDNRVHCCFYFISPFGHGLKPLDVAFMKAIHNKVNIVPVIAKADTLTLKERERLKKRILDEIEEHNIKIYHLPDAESDEDEDFKEQTRLLKASIPFSVVGSNQLIEAKGKKVRGRLYPWGVVEVENPEHNDFLKLRTMLITHMQDLQEVTQDLHYENFRSERLKRGGRKVENEDMNKDQILLEKEAELRRMQEMIARMQAQMQMQMQGGDGDGGALGHHV
For B1, the binding [1] was “binds” and the binding [2] was “binds”.

B2: full-length human SEPT7 (untagged, as in the octamers), Q16181 1-437 (natural protein)
chain: MSVSARSAAAEERSVNSSTMVAQQKNLEGYVGFANLPNQVYRKSVKRGFEFTLMVVGESGLGKSTLINSLFLTDLYSPEYPGPSHRIKKTVQVEQSKVLIKEGGVQLLLTIVDTPGFGDAVDNSNCWQPVIDYIDSKFEDYLNAESRVNRRQMPDNRVQCCLYFIAPSGHGLKPLDIEFMKRLHEKVNIIPLIAKADTLTPEECQQFKKQIMKEIQEHKIKIYEFPETDDEEENKLVKKIKDRLPLAVVGSNTIIEVNGKRVRGRQYPWGVAEVENGEHCDFTILRNMLIRTHMQDLKDVTNNVHYENYRSRKLAAVTYNGVDNNKNKGQLTKSPLAQMEEERREHVAKMKKMEMEMEQVFEMKVKEKVQKLKDSEAELQRRHEQMKKNLEAQHKELEEKRRQFEDEKANWEAQQRILEQQNSSRTLEKNKKKGKIF
With B2 the binding [3] was “binds” and the binding [4] was “binds”.

B3: human SEPT6 (protein, UniProt Q14141-2 1-427)
chain: MAATDIARQVGEGCRTVPLAGHVGFDSLPDQLVNKSVSQGFCFNILCVGETGLGKSTLMDTLFNTKFEGEPATHTQPGVQLQSNTYDLQESNVRLKLTIVSTVGFGDQINKEDSYKPIVEFIDAQFEAYLQEELKIRRVLHTYHDSRIHVCLYFIAPTGHSLKSLDLVTMKKLDSKVNIIPIIAKADAISKSELTKFKIKITSELVSNGVQIYQFPTDDESVAEINGTMNAHLPFAVIGSTEELKIGNKMMRARQYPWGTVQVENEAHCDFVKLREMLIRVNMEDLREQTHTRHYELYRRCKLEEMGFKDTDPDSKPFSLQETYEAKRNEFLGELQKKEEEMRQMFVQRVKEKEAELKEAEKELHEKFDRLKKLHQDEKKKLEDKKKSLDDEVNAFKQRKTAAELLQSQGSQAGGSQTLKRDKEKKN
In the case of B3, the binding [5] is reported as “binds”, the binding [6] is reported as “binds” and the binding [7] is reported as “binds”. The binding [8] was “binds”.
